US20250026849A1 (ARCELLX, published 2025)
These are yes or no findings as the source states them, for the method shown. Some results given as binding are weak or reduced against the parent protein; the word gives no strength.

Amino acid sequences for entries named in this document (tags omitted). Residues count along the entry.
UniProt Q02223, residues 1-54: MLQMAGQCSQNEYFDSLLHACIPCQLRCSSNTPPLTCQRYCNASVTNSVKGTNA

Columns and labels:
biotinylated BCMA [1] = target: biotinylated BCMA (UniProt Q02223); assay: flow cytometry: af03 CAR Jurkat cells loaded with Adapters, then biotinylated BCMA, detected with Streptavidin-PE
biotinylated BCMA [2] = target: biotinylated BCMA (UniProt Q02223); assay: flow cytometry: af03 CAR Jurkat cells loaded with Adapters, then biotinylated BCMA, detected with Streptavidin-PE (FIGS. 8A, 8B)

B1: bc40-p26 Adapter (SEQ ID NO: 1085) (designed binder)
chain: DEHHHHHHHHHHKLENLYFQGGGGGSMGSWSEFWVRLGAIRERLDALGGSEAELAAFEKEIAAFESELQAYKGKGNPEVEKLRYTAATIRRFLQAYRHNGGGGSGGGGSGGGGSLEKCFQTENPLECQDKGEEELQKYIQESQALAKRSCGLFQKLGEYYLQNAFLVAYTKKAPQLTSSELMAITRKMAATAATCCQLSEDKLLACGEGAADIIIGHLCIRHEMTPVNPGVGQCCTSSYANRRPCFSSLVVDETYVPPAFSDDKFIFHKDLCQAQGVALQTMKQEFLINLVKQKPQITEEQLEAVIADFSGLLEKCCQGQEQEVCFAEEGQKLISKTRAALGV
- binding (biotinylated BCMA [1]): binds
- binding (biotinylated BCMA [2]): binds
